From US20240352100A1 (AJOU UNIVERSITY INDUSTRY ACADEMIC COOPERATION FOUNDATION, published 2024)
Results are given in words; binding and its absence hold for the method and conditions named. In cells and extracts the contact can be indirect. Some binding calls cover weakened binding; strength is not graded here.

The chains behind the UniProt entries cited, without tags or fusion partners. Residues count along the entry.
UniProt P35222, residues 2-781: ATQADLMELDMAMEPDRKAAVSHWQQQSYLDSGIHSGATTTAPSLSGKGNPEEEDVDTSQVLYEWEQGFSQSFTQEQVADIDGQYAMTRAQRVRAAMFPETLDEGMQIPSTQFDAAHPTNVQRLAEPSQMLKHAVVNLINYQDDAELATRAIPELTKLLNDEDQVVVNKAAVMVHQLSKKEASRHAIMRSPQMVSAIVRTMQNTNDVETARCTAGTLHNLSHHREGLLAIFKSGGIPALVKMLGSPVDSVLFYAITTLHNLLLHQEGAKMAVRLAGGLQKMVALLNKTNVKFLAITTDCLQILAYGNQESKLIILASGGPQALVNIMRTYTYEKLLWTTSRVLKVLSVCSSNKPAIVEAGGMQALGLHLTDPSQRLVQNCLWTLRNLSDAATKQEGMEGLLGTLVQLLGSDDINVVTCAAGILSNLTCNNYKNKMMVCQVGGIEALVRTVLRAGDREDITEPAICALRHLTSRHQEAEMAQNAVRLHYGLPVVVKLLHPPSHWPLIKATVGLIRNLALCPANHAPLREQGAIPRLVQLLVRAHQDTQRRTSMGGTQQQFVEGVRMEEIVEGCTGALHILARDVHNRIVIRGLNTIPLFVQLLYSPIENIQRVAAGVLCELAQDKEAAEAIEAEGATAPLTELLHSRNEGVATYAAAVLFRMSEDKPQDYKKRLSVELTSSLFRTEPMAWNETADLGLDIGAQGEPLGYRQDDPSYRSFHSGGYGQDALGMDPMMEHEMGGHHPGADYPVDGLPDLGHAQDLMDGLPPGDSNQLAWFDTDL

Molecular target: β-catenin (endogenous, in colon cancer cell lines) (human) (UniProt P35222)
Assay: co-immunoprecipitation from LoVo cells treated with 2 µM antibody, Western blot

B1: inBC2 (antibody, V domains shown)
VH: QVQLVESGGGVVQPGRSLRLSCAASGFTFSSYPMHWVRQAPGKGLEWVAVVSYDGSYKYYADSVKGRLTISRDNSKNTLYLQMNSLRAEDTAVYYCARATVRGVTKIRGVFDSWGQGTLVTVSS
VL: DYQLTQSPSSLSASVGDRVTITCKSSQSLLNSRDGKNYLAWYQQKPGKAPKMLIYWASTRESGVPSRFSGSGSGTDFTLTISSLQPEDFATYFCQQYWYWMFTFGQGTKVEIKR
notes: Complete immunoglobulin; FR4 back-mutated form of inBC0; also called anti-β-catenin cytosol-penetrating interfering antibody inBC2; anti-β-catenin iMab
**Q.** How did the binding turn out when B1 was run?
**A.** Its binding is “binds”.
